The results in this text go back to patent US5939096A, “Liposome drug-loading method and composition” (priority 1997, dated 1999).

A short description of series [1]: Loading into calcium acetate liposomes monitored by fluorescence. Particulars: FIG. 5A.
A short description of series [2]: Quantitation of compound loaded into acetate gradient liposomes (gel exclusion chromatography, Triton X-100 release). Particulars: 15 minutes, 25° C., 0.1 mM initial external concentration.

5(6)-carboxyfluorescein: the “change in external concentration without transmembrane acetate gradient” value in series [1] (aqueous calcium acetate, no gradient) is given as “no change in external concentration”. Besides, the “fluorescence decrease (uptake) with acetate gradient” value in series [1] (aqueous sodium sulfate, acetate-loaded liposomes) was “a rapid decrease in fluorescence was observed”.

`CCn1cc(C(=O)O)c(=O)c2ccc(C)nc21` [nalidixic acid]: in series [2], the “internal concentration of nalidixic acid” value was “about 1 mM”. For the same compound, the “liposome-associated fraction of total fluorescence” value in series [2] (FIG. 6B) is “seventy two”.
